At least one compound was matched to its structure with a doubt left.
Target: T1, recombinant human α1/β1 sGC (Homo sapiens, UniProt Q02108+Q02153)
T1 construct: made in house
T1 sequence (Q02108 1-690): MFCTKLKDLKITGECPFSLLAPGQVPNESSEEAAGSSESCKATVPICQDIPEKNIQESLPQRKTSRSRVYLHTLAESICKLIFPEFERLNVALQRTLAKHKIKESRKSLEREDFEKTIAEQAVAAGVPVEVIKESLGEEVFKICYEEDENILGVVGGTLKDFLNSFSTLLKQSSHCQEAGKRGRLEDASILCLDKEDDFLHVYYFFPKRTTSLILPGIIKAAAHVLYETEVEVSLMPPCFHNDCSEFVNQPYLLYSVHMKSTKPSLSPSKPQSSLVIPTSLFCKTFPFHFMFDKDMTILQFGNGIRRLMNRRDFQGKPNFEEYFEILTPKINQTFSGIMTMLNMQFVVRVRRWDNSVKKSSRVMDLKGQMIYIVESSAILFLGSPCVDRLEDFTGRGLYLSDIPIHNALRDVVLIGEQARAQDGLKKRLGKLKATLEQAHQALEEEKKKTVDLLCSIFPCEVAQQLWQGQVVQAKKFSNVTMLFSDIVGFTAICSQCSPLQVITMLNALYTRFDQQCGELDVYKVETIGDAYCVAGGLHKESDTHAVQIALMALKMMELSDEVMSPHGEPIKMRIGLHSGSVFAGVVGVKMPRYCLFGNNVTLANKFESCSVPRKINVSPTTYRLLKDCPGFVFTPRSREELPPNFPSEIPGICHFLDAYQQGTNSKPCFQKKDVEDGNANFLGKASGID
T1 sequence (Q02153 1-619): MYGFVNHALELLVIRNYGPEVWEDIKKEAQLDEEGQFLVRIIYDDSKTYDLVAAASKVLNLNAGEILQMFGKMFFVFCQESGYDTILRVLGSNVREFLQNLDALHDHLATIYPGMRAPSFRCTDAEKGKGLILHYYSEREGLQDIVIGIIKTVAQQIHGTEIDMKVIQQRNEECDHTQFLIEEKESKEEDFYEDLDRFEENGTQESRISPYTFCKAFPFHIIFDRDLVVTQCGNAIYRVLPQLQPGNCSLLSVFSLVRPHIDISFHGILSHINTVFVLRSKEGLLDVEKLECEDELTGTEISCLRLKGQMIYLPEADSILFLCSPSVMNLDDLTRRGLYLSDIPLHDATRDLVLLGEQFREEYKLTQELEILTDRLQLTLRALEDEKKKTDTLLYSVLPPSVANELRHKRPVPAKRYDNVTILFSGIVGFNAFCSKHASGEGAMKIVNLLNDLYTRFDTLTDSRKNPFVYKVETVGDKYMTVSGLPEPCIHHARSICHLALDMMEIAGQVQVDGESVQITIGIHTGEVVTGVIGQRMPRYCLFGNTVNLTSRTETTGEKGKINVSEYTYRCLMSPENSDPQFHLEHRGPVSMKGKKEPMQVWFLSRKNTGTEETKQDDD
Test: cGMP production by purified recombinant sGC (activation by tetrapyrroles)
Assay type: biochemical
Conditions: tetrapyrrole alone at 50 μM
Description: FIG. 4. Effect of tetrapyrroles on sGC activity in vitro. A. cGMP production by recombinant human α1/β1 sGC induced by 50 μM factor B, bilirubin, nitrite ionophore 1, uroporphyrin I, or protoporphyrin IX. B. cGMP production by recombinant human α1/β1 sGC induced by 50 μM factor B, bilirubin, nitrite ionophore 1, uroporphyrin I, or protoporphyrin IX alone or in the presence of 1 μM BAY41-2272 or HMR1766. C. cGMP production by recombinant al (31 sGC in response to increasing concentration of protoporphyrin, factor B, vitamin B12 and vitamin B12a. D. cGMP production by recombinant human al/131 sGC induced by various doses of factor B at various doses of BAY41-2272. E. cGMP production by recombinant human α1/β1 sGC induced by various doses of factor B at various doses of BAY41-2272.
Activation of purified sGC by various tetrapyrroles. […] Methods of recombinant expression and purification of human α1/β11 isoform of sGC have been developed^23, 24. Measurements of enzymatic activity and multiple spectral studies performed using this recombinant enzyme^10, 23, 25 indicate that these recombinant preparations have identical properties as the native enzyme. We tested a series of tetrapyrrole compounds (FIG. 3), which are structurally related to PPIX. Similar to PPIX, majority of the tested tetrapyrroles contain four pyrrole rings connected to form a microcycle. […]

SMILES: C=CC1=C(C)c2cc3[nH]c(cc4nc(cc5[nH]c(cc1n2)c(C)c5CCC(=O)O)C(CCC(=O)O)=C4C)c(C)c3C=C [PPIX, protoporphyrin IX, reference compound]
- sGC activation (cGMP production), FIG. 4A: significantly activated sGC
